At least one structure is not confirmed: it was looked up by name or label, or the drawing left a doubt.
Test system: R/R B-cell ALL (B-ALL)
Assay: Retrospective PRWCC analysis: response, relapse, composite endpoint (relapse or loss of BCA) and overall survival after tisagenlecleucel
Type: in vivo, human
Conditions: multivariable analysis after adjustment

## Nc1nc(F)nc2c1ncn2[C@@H]1O[C@H](CO)[C@@H](O)[C@@H]1O [fludarabine]
  fludarabine AUC as predictor of response: not predictive of response

From patent US20240000939A1, “METHODS OF PERSONALIZED PRECONDITIONING FOR CELL THERAPY” (priority 2021, published 2024)
